From article PMC5570487
These are yes or no findings as the source states them, for the method shown. Binding seen in cells or lysates may run through a third protein. A result given as binding can be weak or reduced; the word gives no strength. Where a sequence is shown, tags or fusion partners need not be part of it. Values belong to the molecule of their own block, whether it stands above or below them.

Columns and labels:
CHMP4B-Flag = target: T1, CHMP4B-Flag (UniProt Q9H444); assay: co-IP; HeLa cells coexpressing V5-tagged cBIN1 (full length or truncated) and CHMP4B-Flag, lysed 48 h after transfection in IP buffer (50 mM Tris-HCl pH 8.0, 150 mM NaCl, 5 mM EDTA, 10 mM KCl, 0.5% Triton-100); immunoprecipitated with anti-Flag
T1 sequence: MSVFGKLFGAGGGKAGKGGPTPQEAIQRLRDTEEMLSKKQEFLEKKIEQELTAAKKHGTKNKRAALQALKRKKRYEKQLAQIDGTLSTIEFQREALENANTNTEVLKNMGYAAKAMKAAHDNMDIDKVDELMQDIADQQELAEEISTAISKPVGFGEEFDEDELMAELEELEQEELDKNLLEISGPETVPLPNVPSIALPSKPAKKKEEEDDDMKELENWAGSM

[1] = target: full-length cBIN1-V5 (FL: 1-477 aa); assay: co-IP; HeLa cells coexpressing cBIN1-V5 and CHMP4B-Flag, lysed 48 h after transfection in IP buffer (50 mM Tris-HCl pH 8.0, 150 mM NaCl, 5 mM EDTA, 10 mM KCl, 0.5% Triton-100); immunoprecipitated with anti-V5

Molecule: N-BAR domain of cBIN1, V5-tagged (BAR: 1-308 aa) (domain or fragment)
binding (CHMP4B-Flag): binds

Molecule: full-length cBIN1-V5 (FL: 1-477 aa)
binding (CHMP4B-Flag): binds

Continued, values first:

binding (CHMP4B-Flag): no binding
Molecule: C-terminal (CT) domain of cBIN1, V5-tagged (CT: 256-477 aa) (domain or fragment)

binding [1]: binds
B1: CHMP4B-Flag (protein, UniProt Q9H444 1-224)
chain: T1 sequence
